For experiment [1], the target named is T1, Human liver cathepsin D (Homo sapiens, UniProt P07339).
T1 construct: purchased Athens Research and Technology, Athens, Ga; host or cells: human liver
The experiment can be described thus: Cathepsin D inhibition, fluorometric assay (Tables 5 and 6). It counts as biochemical. The settings on record: read-out: % Inhibition of Cathepsin D. The procedure:
Human liver cathepsin D (Athens Research and Technology, Athens, Ga.) was diluted in assay buffer, 200 mM NaOAc, pH 4.5, 150 mM NaCl to 500 ng/mL and then 100 μL of this cathepsin D solution was added to each well of a 96 well plate with the exception of control wells which received just 100 μL of assay buffer. […] Blank and enzyme control wells each received 5 μL of the DMSO vehicle.
After incubation at 37° C. for 30 minutes, cathepsin D activity was terminated by the addition of 100 μL per well of 400 mU/mL microsomal leucine aminopeptidase (EC 3.4.11.2, Sigma, St. Louis, Mo.) in 1M Tris-HCl, pH 8.0.
Following a two hour incubation at 37° C., to allow the aminopeptidase to release the fluorophore, 7-amido-4-methylcoumarin (AMC) from the products of cathepsin D cleavage, the plates were again analyzed in the fluorometer. In order to check for potential false positives, i.e., inhibitors of microsomal leucine aminopeptidase, residual aminopeptidase activity was monitored directly in each well by the addition of 20 μL/well of 2.5 mM Leu-pNA (Bachem Biosciences, Philadelphia, Pa.) in 10% DMSO.

Sequences of proteins named here, by UniProt entry; tags and fusion partners are left off. Residues count along the entry.
UniProt P07339, 65-161 limits assumed: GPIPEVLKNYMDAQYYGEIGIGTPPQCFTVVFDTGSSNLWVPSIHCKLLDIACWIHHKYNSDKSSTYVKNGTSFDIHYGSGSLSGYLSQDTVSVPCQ
UniProt P07339, 169-412 limits assumed: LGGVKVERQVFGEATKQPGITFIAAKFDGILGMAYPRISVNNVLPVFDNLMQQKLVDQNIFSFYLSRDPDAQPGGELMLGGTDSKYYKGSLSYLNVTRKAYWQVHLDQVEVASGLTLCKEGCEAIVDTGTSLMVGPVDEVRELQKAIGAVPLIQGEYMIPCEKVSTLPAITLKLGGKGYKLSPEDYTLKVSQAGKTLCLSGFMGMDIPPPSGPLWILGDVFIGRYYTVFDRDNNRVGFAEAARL

The subject of experiment [2] is blood glucose level. In words: Hypoglycemic activity in obese diabetic mice (Table 1). The settings on record: Mus musculus, ip. It counts as in vivo, male viable yellow obese-diabetic mice. On the procedure: The hypoglycemic activity of the compounds of the present invention was determined by testing the efficacy of the compounds in vivo in male viable yellow obese-diabetic mice. The test procedure is described in detail below.
Test formulations were prepared by dissolving the test compound in a saline solution containing 2% Emulphor (a polyoxyethylated vegetable oil surfactant from GAP Corp.) to provide the dose level desired. Each test formulation was administered to six viable yellow obese-diabetic mice intraperitoneally at the beginning of the experiment. Blood glucose levels were determined immediately before the first dose and at 2 and 4 hours thereafter using glucose oxidase. A mean was taken of the 6 values obtained before the first dose and at the 2 and 4 hour intervals. In Table 1, Column 1 provides the example number of the test compound, Column 2 provides the dose level of compound tested, and Columns 3 and 4 provide a measurement of the test animal's blood glucose level 2 and 4 hours after test compound administration, respectively, as a percentage of the test animal' s pre-administration blood glucose level.

[3] abbreviates: 2 h, read-out: Percent of Initial Blood Glucose Level After 2 hrs.
The mark [4] stands for this setting: 4 h, read-out: Percent of Initial Blood Glucose Level After 4 hrs.

Like-named read-outs stand apart in the source and are kept apart here.

In general, inhibition refers to the change of the read-out against control, counted positive when it falls.

Consider `COc1ccc(C=C2SC(=S)NC2=O)cc1OC` [Example 60, 5-[(3,4-dimethoxyphenyl)methylene]-2-thioxo-4-thiazolidinone], for which, in experiment [1], the inhibition at 4.15 µg/mL (stock) was found to be 45.5% and the inhibition at 8.3 µg/mL (stock) was 38%. In experiment [2] (setting [3]), the response vs control in vivo at 25 mg/kg worked out at 87 ± 7% and the response vs control in vivo at 50 mg/kg came out at 85 ± 4%. For the same compound, in experiment [2] (setting [4]), the response vs control in vivo at 25 mg/kg came to 89 ± 6% and the response vs control in vivo at 50 mg/kg is 78 ± 3%.
